# In paper PMC10937394:
# Chains of the proteins cited; added tags and fusions are not shown.
# UniProt O54983: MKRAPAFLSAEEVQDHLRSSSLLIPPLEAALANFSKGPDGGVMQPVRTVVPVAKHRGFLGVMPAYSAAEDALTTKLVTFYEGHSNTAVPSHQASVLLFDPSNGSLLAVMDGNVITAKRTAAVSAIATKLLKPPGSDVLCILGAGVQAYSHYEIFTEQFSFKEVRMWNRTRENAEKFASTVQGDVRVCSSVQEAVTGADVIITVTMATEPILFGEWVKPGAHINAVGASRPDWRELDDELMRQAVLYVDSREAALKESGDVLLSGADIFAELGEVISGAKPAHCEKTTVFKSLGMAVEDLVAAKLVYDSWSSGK
# UniProt P70398: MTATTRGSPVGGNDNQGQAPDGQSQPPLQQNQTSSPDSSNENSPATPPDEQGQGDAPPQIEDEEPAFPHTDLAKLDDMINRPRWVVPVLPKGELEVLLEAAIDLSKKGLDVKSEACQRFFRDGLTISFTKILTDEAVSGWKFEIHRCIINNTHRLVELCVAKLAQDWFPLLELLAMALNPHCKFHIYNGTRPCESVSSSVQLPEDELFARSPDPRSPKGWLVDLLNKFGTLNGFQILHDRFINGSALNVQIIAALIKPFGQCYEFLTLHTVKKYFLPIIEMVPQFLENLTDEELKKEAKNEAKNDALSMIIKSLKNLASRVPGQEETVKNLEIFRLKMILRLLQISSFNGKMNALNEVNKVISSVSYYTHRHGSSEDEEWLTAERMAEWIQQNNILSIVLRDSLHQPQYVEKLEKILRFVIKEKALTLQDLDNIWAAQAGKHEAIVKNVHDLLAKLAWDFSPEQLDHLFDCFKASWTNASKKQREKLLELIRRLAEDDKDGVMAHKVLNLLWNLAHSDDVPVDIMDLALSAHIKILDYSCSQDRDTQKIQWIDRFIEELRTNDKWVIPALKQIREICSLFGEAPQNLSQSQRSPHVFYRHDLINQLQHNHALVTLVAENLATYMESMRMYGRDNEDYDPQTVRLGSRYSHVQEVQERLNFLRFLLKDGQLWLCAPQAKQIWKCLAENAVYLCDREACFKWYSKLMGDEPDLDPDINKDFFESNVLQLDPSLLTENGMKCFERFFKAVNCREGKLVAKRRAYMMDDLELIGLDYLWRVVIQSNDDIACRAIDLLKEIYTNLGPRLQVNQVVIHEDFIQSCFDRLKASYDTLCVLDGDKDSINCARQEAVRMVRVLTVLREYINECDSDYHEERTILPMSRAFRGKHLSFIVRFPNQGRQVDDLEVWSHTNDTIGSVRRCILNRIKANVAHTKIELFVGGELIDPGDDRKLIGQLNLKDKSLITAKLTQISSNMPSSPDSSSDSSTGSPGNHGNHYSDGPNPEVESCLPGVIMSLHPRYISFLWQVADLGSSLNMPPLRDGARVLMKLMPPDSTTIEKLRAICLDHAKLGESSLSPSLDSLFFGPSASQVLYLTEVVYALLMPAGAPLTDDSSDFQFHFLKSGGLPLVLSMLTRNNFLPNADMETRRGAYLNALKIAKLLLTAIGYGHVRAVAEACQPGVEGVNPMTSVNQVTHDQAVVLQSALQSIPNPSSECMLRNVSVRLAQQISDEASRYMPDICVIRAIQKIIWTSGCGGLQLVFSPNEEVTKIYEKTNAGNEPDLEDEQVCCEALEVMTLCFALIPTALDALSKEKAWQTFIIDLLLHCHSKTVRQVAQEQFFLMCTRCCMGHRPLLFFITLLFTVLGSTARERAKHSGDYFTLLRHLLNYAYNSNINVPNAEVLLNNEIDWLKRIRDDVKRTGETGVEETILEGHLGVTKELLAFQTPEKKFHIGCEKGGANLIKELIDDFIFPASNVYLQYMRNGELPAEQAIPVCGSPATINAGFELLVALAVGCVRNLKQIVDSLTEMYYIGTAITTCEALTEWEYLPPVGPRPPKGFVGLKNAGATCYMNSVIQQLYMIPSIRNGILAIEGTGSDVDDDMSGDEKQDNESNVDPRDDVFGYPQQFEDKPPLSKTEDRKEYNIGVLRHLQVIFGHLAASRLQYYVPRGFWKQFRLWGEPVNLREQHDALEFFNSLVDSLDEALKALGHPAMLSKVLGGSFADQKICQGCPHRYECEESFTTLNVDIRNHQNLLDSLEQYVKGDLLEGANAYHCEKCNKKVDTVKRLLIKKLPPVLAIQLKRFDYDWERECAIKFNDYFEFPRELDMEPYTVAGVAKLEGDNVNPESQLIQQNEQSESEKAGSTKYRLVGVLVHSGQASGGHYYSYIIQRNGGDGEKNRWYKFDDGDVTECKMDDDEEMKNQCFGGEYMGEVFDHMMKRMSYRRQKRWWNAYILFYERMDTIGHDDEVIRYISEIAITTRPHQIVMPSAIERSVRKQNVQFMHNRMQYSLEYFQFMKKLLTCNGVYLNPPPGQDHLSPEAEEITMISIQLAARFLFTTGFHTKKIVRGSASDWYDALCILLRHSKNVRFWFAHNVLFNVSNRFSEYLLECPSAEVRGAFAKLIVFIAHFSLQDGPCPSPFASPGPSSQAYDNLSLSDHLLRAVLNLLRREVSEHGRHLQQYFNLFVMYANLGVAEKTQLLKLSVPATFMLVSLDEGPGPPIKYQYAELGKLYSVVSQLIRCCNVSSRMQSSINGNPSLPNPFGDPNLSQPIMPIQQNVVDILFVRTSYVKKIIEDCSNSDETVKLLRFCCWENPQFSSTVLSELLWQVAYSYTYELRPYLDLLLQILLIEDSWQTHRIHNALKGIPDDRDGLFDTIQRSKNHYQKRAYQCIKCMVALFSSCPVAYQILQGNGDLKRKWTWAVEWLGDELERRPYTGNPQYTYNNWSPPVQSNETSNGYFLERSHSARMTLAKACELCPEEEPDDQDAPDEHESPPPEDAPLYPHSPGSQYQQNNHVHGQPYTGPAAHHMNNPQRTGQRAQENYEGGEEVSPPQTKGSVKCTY
# UniProt P20357: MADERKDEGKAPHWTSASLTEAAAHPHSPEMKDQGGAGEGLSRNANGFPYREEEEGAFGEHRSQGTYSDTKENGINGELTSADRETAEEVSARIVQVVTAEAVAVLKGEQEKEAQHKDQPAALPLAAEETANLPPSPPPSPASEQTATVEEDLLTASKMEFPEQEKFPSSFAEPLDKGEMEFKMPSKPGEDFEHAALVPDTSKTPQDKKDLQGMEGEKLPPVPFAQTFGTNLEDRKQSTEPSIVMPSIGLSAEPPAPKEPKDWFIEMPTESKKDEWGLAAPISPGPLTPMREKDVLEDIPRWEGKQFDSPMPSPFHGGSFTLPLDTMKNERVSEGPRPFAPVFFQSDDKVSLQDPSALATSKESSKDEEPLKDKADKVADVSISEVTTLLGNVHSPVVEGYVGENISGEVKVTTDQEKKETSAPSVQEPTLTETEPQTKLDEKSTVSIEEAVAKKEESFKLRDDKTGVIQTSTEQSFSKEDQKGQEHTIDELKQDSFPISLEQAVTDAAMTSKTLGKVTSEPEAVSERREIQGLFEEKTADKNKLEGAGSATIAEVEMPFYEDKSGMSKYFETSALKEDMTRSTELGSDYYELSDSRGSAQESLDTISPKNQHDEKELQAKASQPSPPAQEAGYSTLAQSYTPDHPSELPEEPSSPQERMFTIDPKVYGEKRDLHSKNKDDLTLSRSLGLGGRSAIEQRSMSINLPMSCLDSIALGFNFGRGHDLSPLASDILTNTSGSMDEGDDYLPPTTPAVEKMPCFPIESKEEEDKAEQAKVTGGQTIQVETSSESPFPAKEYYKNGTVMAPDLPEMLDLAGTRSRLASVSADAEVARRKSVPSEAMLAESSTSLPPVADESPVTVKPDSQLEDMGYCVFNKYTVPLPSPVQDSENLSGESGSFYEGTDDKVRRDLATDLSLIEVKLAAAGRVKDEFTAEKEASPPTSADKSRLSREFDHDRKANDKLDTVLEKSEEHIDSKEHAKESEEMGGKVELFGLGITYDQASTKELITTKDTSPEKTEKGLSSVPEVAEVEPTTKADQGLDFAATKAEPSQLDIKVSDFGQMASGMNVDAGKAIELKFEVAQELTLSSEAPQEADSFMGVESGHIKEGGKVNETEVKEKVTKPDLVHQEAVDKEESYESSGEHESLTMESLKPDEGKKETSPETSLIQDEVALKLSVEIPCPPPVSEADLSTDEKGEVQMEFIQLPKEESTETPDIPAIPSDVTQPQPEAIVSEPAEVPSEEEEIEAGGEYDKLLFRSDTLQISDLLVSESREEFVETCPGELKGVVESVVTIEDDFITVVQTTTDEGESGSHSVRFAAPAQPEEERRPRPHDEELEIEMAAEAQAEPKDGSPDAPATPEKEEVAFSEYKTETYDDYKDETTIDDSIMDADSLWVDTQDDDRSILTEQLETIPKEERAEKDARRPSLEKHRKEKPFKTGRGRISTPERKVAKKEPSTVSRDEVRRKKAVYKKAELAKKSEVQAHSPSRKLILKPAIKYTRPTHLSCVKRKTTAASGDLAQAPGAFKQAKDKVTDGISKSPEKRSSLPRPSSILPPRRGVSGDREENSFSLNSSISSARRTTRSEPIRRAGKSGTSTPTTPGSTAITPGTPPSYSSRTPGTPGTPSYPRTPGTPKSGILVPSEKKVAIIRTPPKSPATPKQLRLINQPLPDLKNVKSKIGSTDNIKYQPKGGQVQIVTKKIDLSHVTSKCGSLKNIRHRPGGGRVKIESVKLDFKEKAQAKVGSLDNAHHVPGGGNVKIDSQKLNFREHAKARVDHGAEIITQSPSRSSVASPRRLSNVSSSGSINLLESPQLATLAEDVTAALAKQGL
# Results are given in words; binding and its absence hold for the method and conditions named. In cells and extracts the contact can be indirect. Some entries that bind do so weakly or less than the wild type.
# Molecular target: μ-crystallin (mouse (endogenous in mouse striatum)) (UniProt O54983)
# Assay: proximity ligation; Duolink PLA on fixed-frozen 20 μm coronal sections of mouse striatum with tdTomato-labelled astrocytes; mouse anti-µ-crystallin with rabbit anti-USP9X or rabbit anti-MAPT; puncta counted in each astrocyte territory; detects native proteins within about 40 nm; negative controls: dorsolateral striatum astrocytes that lack μ-crystallin, and omission of one PLA probe
row,binding,Substance
1,binds,USP9X (from UniProt P70398 1-2559)
2,binds,MAP2 (from UniProt P20357 1-1828)
